Measured values taken from article PMC4294777.
Results are given in words; binding and its absence hold for the method and conditions named. Binding seen in cells or lysates may run through a third protein. Some results given as binding are weak or reduced against the parent protein; the word gives no strength. Tags and fused reporters may be left off the sequences shown.

Molecular target: T1, Klp5-3FLAG (fission yeast) (UniProt O14343)
T1 sequence: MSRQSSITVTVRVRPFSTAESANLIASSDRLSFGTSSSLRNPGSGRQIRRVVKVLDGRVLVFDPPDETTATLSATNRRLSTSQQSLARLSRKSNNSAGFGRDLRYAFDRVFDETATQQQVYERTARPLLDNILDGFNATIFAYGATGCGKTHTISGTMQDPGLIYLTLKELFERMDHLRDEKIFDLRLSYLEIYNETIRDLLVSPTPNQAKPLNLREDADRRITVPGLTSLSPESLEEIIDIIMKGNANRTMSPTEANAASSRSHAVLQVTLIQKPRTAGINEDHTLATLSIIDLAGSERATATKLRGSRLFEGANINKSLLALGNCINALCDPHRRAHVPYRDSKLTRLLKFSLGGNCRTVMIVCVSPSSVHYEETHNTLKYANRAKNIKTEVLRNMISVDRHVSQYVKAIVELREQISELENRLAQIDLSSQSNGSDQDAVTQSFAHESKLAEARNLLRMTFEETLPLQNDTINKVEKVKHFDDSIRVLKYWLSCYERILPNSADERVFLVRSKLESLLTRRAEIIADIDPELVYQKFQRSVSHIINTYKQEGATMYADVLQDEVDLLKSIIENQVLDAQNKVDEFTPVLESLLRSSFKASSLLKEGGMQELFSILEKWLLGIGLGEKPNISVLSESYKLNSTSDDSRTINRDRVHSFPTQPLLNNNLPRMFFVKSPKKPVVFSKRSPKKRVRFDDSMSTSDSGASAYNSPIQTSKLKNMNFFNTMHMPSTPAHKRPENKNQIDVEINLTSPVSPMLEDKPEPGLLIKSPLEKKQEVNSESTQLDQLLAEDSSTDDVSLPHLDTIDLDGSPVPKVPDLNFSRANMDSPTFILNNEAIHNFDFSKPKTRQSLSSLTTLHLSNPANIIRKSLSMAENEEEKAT
Assay: co-IP; protein extracts (4 mg or 8 mg) of metaphase-arrested cut9-665 cells (36°C, 2.5 hours) added to protein A Dynabeads coated with anti-Flag antibodies; blotted with anti-Flag and anti-Myc

B1: Alp7-Myc (protein, UniProt Q9URY2 1-474)
chain: MSDIVSSSTDYSRRSPSSSSIGTNETDHTGFHEKRQGASSESLIPPAQRSSEESMPAPKLFPKLTSKPNPQLNLKDTLNKRVSDRLQALELNKSFDFSGTPRPMHPISHPLSQHKTPEFKHRKRNVESILTPKNPSLFSSSNAASQRGSLNTAPSNFAYSHSSSLQTSASSRPPVLSNGSFPRQTNTAPLNPPVHLKDNIRNSATPSTSQADIPTQYPINSTQKQQAKYEAEIEGYKAKLAGTYHEISVLQNTIVNVSGQLIAVNDQLQQLRSGKASTSPSTKDTNMRLVEGHNEETLALQRGKYTQEEVDKLIQERMEKVAEDLHAQYSAKHTQKINAFKANYARKYEATIQELQNQIGTAPNAPKISNSNWEEERRALKADNQTLQKQLEKAIQERQDMSDFLNNFKADMAKSDKLLMQQQSQQTGDLETLRLQLQALQEELRVEREERQQLIQMSEDLVIAMDQLNLEQKS
For B1, the binding was “binds”.
